From paper PMC10020564, “Distinct inter-domain interactions of dimeric versus monomeric α-catenin link cell junctions to filaments” (Communications Biology, 2023)
No constants are given. Whether binding was seen depends on the method and setting.

B1: full-length human α-catenin (residues 1–906) (natural protein, UniProt P35221 1-906, looked up)
chain: MTAVHAGNINFKWDPKSLEIRTLAVERLLEPLVTQVTTLVNTNSKGPSNKKRGRSKKAHVLAASVEQATENFLEKGDKIAKESQFLKEELVAAVEDVRKQGDLMKAAAGEFADDPCSSVKRGNMVRAARALLSAVTRLLILADMADVYKLLVQLKVVEDGILKLRNAGNEQDLGIQYKALKPEVDKLNIMAAKRQQELKDVGHRDQMAAARGILQKNVPILYTASQACLQHPDVAAYKANRDLIYKQLQQAVTGISNAAQATASDDASQHQGGGGGELAYALNNFDKQIIVDPLSFSEERFRPSLEERLESIISGAALMADSSCTRDDRRERIVAECNAVRQALQDLLSEYMGNAGRKERSDALNSAIDKMTKKTRDLRRQLRKAVMDHVSDSFLETNVPLLVLIEAAKNGNEKEVKEYAQVFREHANKLIEVANLACSISNNEEGVKLVRMSASQLEALCPQVINAALALAAKPQSKLAQENMDLFKEQWEKQVRVLTDAVDDITSIDDFLAVSENHILEDVNKCVIALQEKDVDGLDRTAGAIRGRAARVIHVVTSEMDNYEPGVYTEKVLEATKLLSNTVMPRFTEQVEAAVEALSSDPAQPMDENEFIDASRLVYDGIRDIRKAVLMIRTPEELDDSDFETEDFDVRSRTSVQTEDDQLIAGQSARAIMAQLPQEQKAKIAEQVASFQEEKSKLDAEVSKWDDSGNDIIVLAKQMCMIMMEMTDFTRGKGPLKNTSDVISAAKKIAEAGSRMDKLGRTIADHCPDSACKQDLLAYLQRIALYCHQLNICSKVKAEVQNLGGELVVSGVDSAMSLIQAAKNLMNAVVQTVKASYVASTKYQKSQGMASLNLPAVSWKMKAPEKKPLVKREKQDETQTKIKRASQKKHVNPVQALSEFKAMDSI
notes: Cloned into pGEX-6P-1; residues of the PreScission site may remain at the N-terminus after cleavage; The same protein elutes as a monomer peak and a dimer peak, which were pooled separately; also called human monomeric α-catenin; human dimeric α-catenin; source: E. coli BL21(DE3), purified (GST Sepharose, PreScission cleavage, Superdex S200; monomer and dimer peaks pooled separately); not shown: …
B2: human α-catenin (residues 22–906) (domain or fragment, UniProt P35221 22-906, looked up)
chain: TLAVERLLEPLVTQVTTLVNTNSKGPSNKKRGRSKKAHVLAASVEQATENFLEKGDKIAKESQFLKEELVAAVEDVRKQGDLMKAAAGEFADDPCSSVKRGNMVRAARALLSAVTRLLILADMADVYKLLVQLKVVEDGILKLRNAGNEQDLGIQYKALKPEVDKLNIMAAKRQQELKDVGHRDQMAAARGILQKNVPILYTASQACLQHPDVAAYKANRDLIYKQLQQAVTGISNAAQATASDDASQHQGGGGGELAYALNNFDKQIIVDPLSFSEERFRPSLEERLESIISGAALMADSSCTRDDRRERIVAECNAVRQALQDLLSEYMGNAGRKERSDALNSAIDKMTKKTRDLRRQLRKAVMDHVSDSFLETNVPLLVLIEAAKNGNEKEVKEYAQVFREHANKLIEVANLACSISNNEEGVKLVRMSASQLEALCPQVINAALALAAKPQSKLAQENMDLFKEQWEKQVRVLTDAVDDITSIDDFLAVSENHILEDVNKCVIALQEKDVDGLDRTAGAIRGRAARVIHVVTSEMDNYEPGVYTEKVLEATKLLSNTVMPRFTEQVEAAVEALSSDPAQPMDENEFIDASRLVYDGIRDIRKAVLMIRTPEELDDSDFETEDFDVRSRTSVQTEDDQLIAGQSARAIMAQLPQEQKAKIAEQVASFQEEKSKLDAEVSKWDDSGNDIIVLAKQMCMIMMEMTDFTRGKGPLKNTSDVISAAKKIAEAGSRMDKLGRTIADHCPDSACKQDLLAYLQRIALYCHQLNICSKVKAEVQNLGGELVVSGVDSAMSLIQAAKNLMNAVVQTVKASYVASTKYQKSQGMASLNLPAVSWKMKAPEKKPLVKREKQDETQTKIKRASQKKHVNPVQALSEFKAMDSI
notes: Modified pET28 vector; By the printed forward primer the residues GPHM would remain before T22 after PreScission cleavage (surmise); The dimer was used for the complex with F-actin; in the map only residues 710–871 are ordered; also called Δ1–21 α-catenin; human dimeric α-catenin Δ1–21; source: E. coli BL21(DE3), purified (HisTrap, PreScission cleavage, reverse HisTrap, Superdex S200); not shown: …

Experiments:
[1] = biological target: full-length human α-catenin (residues 1–906) (human) (UniProt P35221); test: condition: only the separately pooled monomer peak of the size exclusion run; SEC-MALS; separately pooled monomer peak of a size exclusion run; Superdex S200 10/300 GL, 20 mM Tris-HCl pH 8, 150 mM NaCl, 0.2 mM TCEP, 0.5 ml/min; both purified
[2] = biological target: human α-catenin (residues 22–906) (human) (UniProt P35221); test: as above

Row | Binder | binding [1] | binding [2]
1 | B1 | no binding | –
2 | B2 | – | no binding
